Some of these results come from one statement about several compounds together.
What was measured:
[1] = tested on: Myzus persicae (green peach aphid); assay: Myzus persicae (green peach aphid) sunflower leaf disc spray test; type: in vivo; conditions: 200 ppm spray on sunflower leaf discs, aphid population of mixed ages, 6 DAT
Protocol: Sunflower leaf discs were placed on agar in a 24-well microtiter plate and sprayed with test solutions at an application rate of 200 ppm. After drying, the leaf discs were infested with an aphid population of mixed ages. After an incubation period of 6 DAT, samples were checked for mortality. The following compounds gave 100% control: 1.001, 1.002, 1.003, 1.004, 1.005, 1.006, 1.008, 1.009, 1.012, 1.013, 1.014, 1.016, 1.017 and 1.018. The following compounds gave 80% control: 1.007 and 1.011. The following compound gave 50% control: 1.010

[2] = tested on: Tetranychus urticae (two-spotted spider mite); assay: Tetranychus urticae (two-spotted spider mite) bean leaf disc spray test; type: in vivo; conditions: 200 ppm spray on bean leaf discs, mite populations of mixed ages, 8 days
From the text: Bean leaf discs on agar in 24-well microtiter plates wer sprayed with test solutions at an application rate of 200 ppm. After drying, the leaf discs are infested with mite populations of mixed ages. 8 days later, discs are checked for egg mortality, larval mortality, and adult mortality. The following compounds gave 100% control: 1.001, 1.002, 1.003, 1.004, 1.006, 1.008, 1.009, 1.010, 1.012, 1.013, 1.014, 1.016, 1.017 and 1.018. The following compound gave 50% control: 1.011.

| Compound | control (mortality) [1] [%] | control (egg mortality, larval mortality, adult mortality) [2] [%] |
| --- | --- | --- |
| CCCC(Oc1cccc([N+](=O)[O-])c1Br)C1=NCCN1 (stereo not shown) [Compound 1.018] | 100 | 100 |
| Cc1c(OC(C2=NCCN2)C(C)C)cccc1[N+](=O)[O-] (stereo not shown) [Compound 1.002] | 100 | 100 |
| Cc1c(OC(C2=NCCN2)C2CC2)cccc1[N+](=O)[O-] (stereo not shown) [Compound 1.003] | 100 | 100 |
| CCCC(Oc1cccc([N+](=O)[O-])c1Cl)C1=NCCN1C(=O)OC(C)(C)C (stereo not shown) [Compound 1.010] | – | 100 |
| CCCCC(Oc1cccc([N+](=O)[O-])c1C)C1=NCCN1 (stereo not shown) [Compound 1.005] | 100 | – |
| CCC(Oc1cccc([N+](=O)[O-])c1C)C1=NCCN1 (stereo not shown) [Compound 1.001] | 100 | 100 |
| COCC(Oc1cccc([N+](=O)[O-])c1Cl)C1=NCCN1 (stereo not shown) [Compound 1.017] | 100 | 100 |
| C=CCC(Oc1cccc([N+](=O)[O-])c1C)C1=NCCN1 (stereo not shown) [Compound 1.013] | 100 | 100 |
| CCCC(Oc1cccc([N+](=O)[O-])c1Cl)C1=NCCN1 (stereo not shown) [Compound 1.009] | 100 | 100 |
| CC(C)C(Oc1cccc([N+](=O)[O-])c1Cl)C1=NCCN1 (stereo not shown) [Compound 1.014] | 100 | 100 |
| CCCC(Oc1cccc([N+](=O)[O-])c1C)C1=NCCN1C(=O)OC(C)(C)C (stereo not shown) [Compound 1.006] | 100 | 100 |
| CCCC(Oc1cccc([N+](=O)[O-])c1C)C1=NCCN1 (stereo not shown) [Compound 1.004] | 100 | 100 |

From patent US20100267795A1, “NITROSUBSTITUTED ARYLOXYALKYLIMIDAZOLINES FOR USE AS PESTICIDES” (SYNGENTA CROP PROTECTION, INC., priority 2007, published 2010)
